Primary screen of a compound library

Sequences of proteins named here, by UniProt entry; tags and fusion partners are left off.
UniProt I6X8D2, whole entry: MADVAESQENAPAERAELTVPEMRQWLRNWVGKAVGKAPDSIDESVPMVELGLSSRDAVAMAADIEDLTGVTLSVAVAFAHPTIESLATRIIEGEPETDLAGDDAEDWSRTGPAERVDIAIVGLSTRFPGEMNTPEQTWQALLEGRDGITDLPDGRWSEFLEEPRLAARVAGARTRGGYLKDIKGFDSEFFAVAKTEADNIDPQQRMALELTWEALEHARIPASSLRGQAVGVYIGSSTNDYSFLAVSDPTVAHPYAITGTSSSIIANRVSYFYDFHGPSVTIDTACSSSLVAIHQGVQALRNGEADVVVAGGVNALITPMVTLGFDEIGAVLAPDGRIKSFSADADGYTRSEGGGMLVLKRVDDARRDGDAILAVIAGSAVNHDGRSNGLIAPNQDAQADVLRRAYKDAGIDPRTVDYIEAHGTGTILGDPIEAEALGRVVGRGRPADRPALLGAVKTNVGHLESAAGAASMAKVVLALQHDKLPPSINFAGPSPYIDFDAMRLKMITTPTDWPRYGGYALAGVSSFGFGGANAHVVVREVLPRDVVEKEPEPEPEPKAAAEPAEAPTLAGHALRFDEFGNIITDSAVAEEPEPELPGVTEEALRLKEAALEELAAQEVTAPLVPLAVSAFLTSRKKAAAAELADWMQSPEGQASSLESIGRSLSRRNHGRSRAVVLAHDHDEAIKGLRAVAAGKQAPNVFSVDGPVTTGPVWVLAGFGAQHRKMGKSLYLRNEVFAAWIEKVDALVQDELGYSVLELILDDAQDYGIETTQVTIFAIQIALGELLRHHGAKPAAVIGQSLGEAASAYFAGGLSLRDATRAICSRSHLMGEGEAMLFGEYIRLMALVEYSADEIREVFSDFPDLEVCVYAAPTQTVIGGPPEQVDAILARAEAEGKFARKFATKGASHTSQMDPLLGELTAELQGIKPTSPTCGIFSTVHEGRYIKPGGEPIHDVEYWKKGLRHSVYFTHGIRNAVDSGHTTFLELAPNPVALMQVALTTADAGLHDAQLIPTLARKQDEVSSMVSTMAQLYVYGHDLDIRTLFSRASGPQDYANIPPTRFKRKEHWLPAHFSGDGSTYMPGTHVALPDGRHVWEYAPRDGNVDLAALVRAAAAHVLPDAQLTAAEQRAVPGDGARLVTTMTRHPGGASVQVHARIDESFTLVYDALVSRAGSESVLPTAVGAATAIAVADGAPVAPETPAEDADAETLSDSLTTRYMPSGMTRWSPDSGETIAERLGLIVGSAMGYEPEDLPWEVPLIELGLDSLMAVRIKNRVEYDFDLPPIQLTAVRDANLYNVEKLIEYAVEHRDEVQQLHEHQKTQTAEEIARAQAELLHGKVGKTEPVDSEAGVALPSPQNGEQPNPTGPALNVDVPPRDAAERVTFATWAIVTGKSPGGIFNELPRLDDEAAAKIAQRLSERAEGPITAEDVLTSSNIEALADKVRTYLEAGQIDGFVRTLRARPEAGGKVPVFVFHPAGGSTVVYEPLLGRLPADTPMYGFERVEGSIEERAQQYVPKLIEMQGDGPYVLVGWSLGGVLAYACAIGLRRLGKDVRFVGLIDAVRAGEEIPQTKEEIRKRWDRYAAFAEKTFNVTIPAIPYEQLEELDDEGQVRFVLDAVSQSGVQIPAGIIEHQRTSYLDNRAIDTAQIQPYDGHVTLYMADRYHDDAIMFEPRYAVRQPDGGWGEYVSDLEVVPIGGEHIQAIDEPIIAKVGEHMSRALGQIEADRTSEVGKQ
UniProt P9WNZ1, whole entry: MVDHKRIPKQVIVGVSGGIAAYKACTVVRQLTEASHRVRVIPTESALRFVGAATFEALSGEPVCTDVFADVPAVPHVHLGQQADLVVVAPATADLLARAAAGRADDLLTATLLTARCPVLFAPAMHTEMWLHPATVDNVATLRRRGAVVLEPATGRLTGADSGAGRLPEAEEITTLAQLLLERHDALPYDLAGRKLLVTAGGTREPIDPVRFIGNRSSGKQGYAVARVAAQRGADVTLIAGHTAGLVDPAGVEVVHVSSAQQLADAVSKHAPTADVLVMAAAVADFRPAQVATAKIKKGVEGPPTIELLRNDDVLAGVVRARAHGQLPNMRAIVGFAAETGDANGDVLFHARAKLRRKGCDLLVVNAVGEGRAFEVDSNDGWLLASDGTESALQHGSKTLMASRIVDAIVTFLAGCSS
UniProt P9WFT3, whole entry: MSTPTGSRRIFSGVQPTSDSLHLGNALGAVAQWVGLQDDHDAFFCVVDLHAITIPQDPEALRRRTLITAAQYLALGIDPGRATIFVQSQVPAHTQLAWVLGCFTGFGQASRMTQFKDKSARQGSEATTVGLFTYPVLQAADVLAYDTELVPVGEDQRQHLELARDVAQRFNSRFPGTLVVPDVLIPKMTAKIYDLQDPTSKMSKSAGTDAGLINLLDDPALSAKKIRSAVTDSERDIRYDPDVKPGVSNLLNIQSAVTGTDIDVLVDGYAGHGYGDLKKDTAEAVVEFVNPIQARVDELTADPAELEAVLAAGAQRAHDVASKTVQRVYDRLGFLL

Measurements from “University of Dundee, Small-Polar-MMV Screening Library” (2021), ChEMBL document CHEMBL3988442.

Pks13 thioesterase: 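Enzyme assay of the thioesterase domain of polyketide synthase 13; the read-out is not stated. Target: Polyketide synthase Pks13, Mycobacterium tuberculosis (UniProt I6X8D2). Concentration: 30 µM. Higher reads as stronger inhibition (inferred from which compounds were picked for retests). Of about 67,000 compounds tested this way, about 300 (0.46%) reached 50% or more in at least one test.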
CoaBC: 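Enzyme assay of CoaBC with a phosphate dye (Biomol Green) read at 650 nm. Target: Coenzyme A biosynthesis protein CoaBC, Mycobacterium tuberculosis (UniProt P9WNZ1). Concentration: 30 µM. Direction is inferred from only a few compounds that gave an IC50; most scored high, so higher reads as stronger inhibition. Most strong results did not repeat in a second test. Size under these conditions: about 67,000 compounds, about 40 of them at 50% or above in at least one test.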
Leishmania in macrophages: 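Cell assay of Leishmania donovani living inside macrophages; the read-out is not stated. Concentration: 30 µM. The record gives no direction; compounds that gave an IC50 in retests scored well above the rest, so higher reads as stronger inhibition. About 69,000 compounds were tested under these conditions; 1.5% (about 1,000) showed 50% or more at least once.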
MtTrpRS: 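Tryptophan-tRNA ligase, Mycobacterium tuberculosis (UniProt P9WFT3). Enzyme assay of tryptophanyl-tRNA synthetase; the read-out is not stated. Tested at 10 µM. Higher most likely means stronger inhibition; the record gives no direction and few retests gave an IC50. Of about 65,000 compounds tested this way, about 64 (0.098%) reached 50% or more in at least one test.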

Values are the deposited “Percent Effect”, in %.
How 0% and 100% were set is not recorded. Most values in the screen are low, and negative values occur.
The compounds are a random part of those screened.
Two or more numbers in one place are separate tests of the same structure; such repeats can differ widely.
A dash means the value is not listed here; it may have been measured.

structure	Pks13 thioesterase	CoaBC	Leishmania in macrophages	MtTrpRS
Cc1nc(CN2CCCN(C(=O)C3(C#N)CCCCC3)CC2)cs1	-25.9%	-3.599%	18.8%	5.586%
O=C1[C@H]2CN(Cc3ccco3)C[C@H]2CN1c1ccsc1	-11.79%	9.533%	-	3.743%
CCOC(=O)C1(Cc2cccc(OC)c2)CCN(Cc2ncc[nH]2)CC1	-27.03%	7.578%	25.08%	1.737%
N#Cc1ccsc1C(=O)N1CCCN(Cc2cscn2)CC1	-	3.133%	20.59%	-2.257%
NC(=O)NC(CC(=O)NCCc1cccc(F)c1)c1ccccc1 (stereo not shown)	-3.885%	-3.686%	9.491%	-0.2564%
CC1=Nc2c(c(=O)[nH]n2C2CCCC2)C(c2cccnc2)S1 (stereo not shown)	-24.8% and -14.49%	-1.58% and -0.6053%	17.96% and 29.07%	1.4% and 4.019%
[H][C@]12CNC[C@@]1(C(=O)N(C)Cc1nc(C)c[nH]1)CN(c1ncccn1)C2	-	-	32.5%	-
Cc1[nH]ccc1C(=O)NC1CCC(N2C(=O)CCC2=O)CC1 (stereo not shown)	-14.26%	-7.273%	30.61%	-4.461%
COc1cccc(-c2cc(C(=O)N3N=C(C)CC3(O)C(F)F)[nH]n2)c1 (stereo not shown)	-28.18%	0.6329%	-31.4%	-1.627%
CC(C)c1nnc(NC(=O)N(C)Cc2ccc(C(N)=O)cc2)s1	-18.23%	4.377%	30.36%	-1.161%
CC(C)=CCN1C(=O)[C@H]2CC[C@@H]1CN(c1ncccc1F)C2	-	3.053%	-	3.072%
CC(=O)NCC(=O)N1CCOC2(CCCN(c3cccnc3)C2)C1 (stereo not shown)	-2.211%	-6.418%	-	-0.7505%
[H][C@@]12CS(=O)(=O)C[C@]1([H])NCCN2c1ccnc(N(C)Cc2ccccn2)n1	-	-	-30.63%	-
CN1CC2(CCNCC2)CC1C(=O)NCCCNc1cccnc1 (stereo not shown)	-3.182%	-35.64%	-20.43%	4.312%
CCC(CNc1ncnc2oc(C)nc12)Cc1ccccc1 (stereo not shown)	-13.83%	0.2058%	45.54%	-3.32%
O=C(NCc1ccccc1)[C@H]1C[C@@H]2CN(S(=O)(=O)C3CC3)C[C@H]1O2	-13.63%	0.9009%	-	-5.273%
COc1ccc(-n2ccc(C(=O)NCCN3CCCCCC3)n2)cc1	4.055%	0.6452%	12.3%	2.142%
CC(C(=O)N1CCCN(Cc2ccc(C#N)cc2)CC1)n1cncn1 (stereo not shown)	-20.38%	11.03%	27.46%	-1.946%
CN1CCN(c2cnn(Cc3ccc(S(C)(=O)=O)cc3)c(=O)c2)CC1	-0.9705%	-6.436%	27.55%	0.3458%
O=C(NCCc1ccncc1)[C@H]1CC[C@@H]2[C@@H](CCN2C2CCC2)O1	-22.69%	3.583%	-	-0.3255%
CCN(CC)C1CCN(c2ncnc3c2CCN(C(=O)C2CC2)C3)C1 (stereo not shown)	-	2.826%	8.798%	-0.4105%
COc1ccc(CN2CCc3ncnc(C4CC4)c3CC2)cc1.O=C(O)C(F)(F)F	-	-	-20.54%	-
O=c1cc(CN2CC[C@@]3(O)CCCC[C@H]3C2)c2cccc3c2n1CCC3	-25.46%	7.348%	-	14.15%
COCC1CN(C(=O)c2cccc(C)n2)Cc2nccn2C1.O=C(O)C(F)(F)F (stereo not shown)	-	-	-11.5%	-
CN(Cc1cccnc1)C(=O)NC1CCN(Cc2ccccn2)CC1	2.918%	2.955%	23.16%	-4.413%
O=C(O)C(F)(F)F.O=C(O)C(F)(F)F.[H][C@]12COC[C@H](N(C)C)[C@@]1([H])CN(Cc1ccc3c(c1)OCO3)C2	-	-	6.537%	-
Cc1nc(CCN(C)C(=O)CN2CCCCCC2)no1	-16.45%	-3.65%	28.54%	0.7988%
CN(C)c1ncccc1CNC(=O)N1CCCC1CN1CCCCC1 (stereo not shown)	-3.593%	3.614%	48.96%	-0.7194%
Cc1nc(CSCCC(=O)NCC(=O)NC(C)C)cs1	-21.91%	2.727%	6.63%	1.784%
O=C1CCSCC(C(=O)N2CCC3(CC2)OCCO3)N1 (stereo not shown)	-5.825%	3.308%	-1.798% and 2.661%	4.51%
CC(NC(=O)c1ccc(Cl)cc1)c1nnc(SCC(=O)O)n1C (stereo not shown)	-6.287%	14.78%	-33.49%	-0.5181%
CC(=O)N1CCC2(CCN(C(=O)c3ccc(Cl)c(C(F)(F)F)c3)C2)C1 (stereo not shown)	-20.11%	5.462%	6.875%	-0.5231%
CC(NC(=O)NCCCn1cncn1)c1ccc(C(F)(F)F)cc1 (stereo not shown)	-16.74%	0.3736%	10.9%	2.903%
CN(Cc1nnc(C2CC2)n1C)C1CCN(CCc2ccccc2)C1 (stereo not shown)	6.064%	6.182%	31.59%	-1.616%
COCc1noc(CCNc2nc(CC3CC3)nc3c2CCNCC3)n1	-3.948%	1.716%	22.64%	0.000006%
CS(=O)(=O)NCC1CCCN(C(=O)c2ccc3c(c2)CCC3)C1 (stereo not shown)	-7.223%	2.689%	-18.66%	1.644%
Cc1cc(NC(=O)NCC(c2ccsc2)N(C)C)n(C)n1 (stereo not shown)	-31.03%	2.17%	7.868%	-1.57%
Cc1nc(-c2ccsc2)ccc1C(=O)N(C)CC1CC1	-16.95%	2.041%	12.95%	-9.039%
CC(C)c1nc(C(=O)N2CCOCC2CC(=O)c2ccco2)cs1 (stereo not shown)	-8.9%	2.768%	-16.09%	-3.228%
O=C(CCSc1ccc(F)cc1)NS(=O)(=O)c1ccc2c(c1)OCCO2	-16.52%	-2.073%	0.6543%	3.489%
Cc1cnn(CC2CCCCN2C(=O)c2cccc3c2OCO3)c1 (stereo not shown)	0.5382%	4.536%	-1.855%	-0.895%
COC(=O)N1CCCC(C(=O)NCc2cc3cccc(OC)c3o2)C1 (stereo not shown)	-22.06%	1.799%	15.39%	-0.8655%
O=C1CCCN1C1CCN(S(=O)(=O)CCOc2ccc(F)cc2)CC1	28.32%	-	-3.931%	12.69%
Cc1n[nH]cc1CNC(=O)[C@H]1CCCCN1C(=O)OC(C)(C)C	0.1051%	-3.748%	-4.779%	5.263%
CN(CC(=O)Nc1cc(CC2CCCCC2)n[nH]1)S(C)(=O)=O	-23.45%	9.375%	66.78%	-3.612%
O=C(O)C(F)(F)F.[H][C@@]12COC[C@]1([H])[C@@H](OCC1CCOCC1)CN2Cc1ccc(C)o1	-	-	16.63%	-
O=C(N[C@@H]1CCN(C(=O)c2cc[nH]c2)C[C@H]1O)c1ccccn1	-0.2909%	1.028%	4.682%	-8.327%
COC(C)C(=O)NS(=O)(=O)c1ccc(F)c(C(F)(F)F)c1 (stereo not shown)	-13.38%	0.4592%	-1.428%	10.53%
CSCc1ccc(CNC2CCCN(c3ccc(C)nn3)C2)o1 (stereo not shown)	-5.672%	-5.362%	26.04%	1.988%
CN1CCN(c2nsc(-c3cccnc3)c2C#N)CC1	14.9%	-3.271%	11.24%	-1.905%
CCN1C(=O)CC(c2cnn(C)c2)C12CCN(C(=O)C1CC=CC1)CC2 (stereo not shown)	1.491%	0.6148%	-5.816%	-3.294%
COc1ccc(C(C(=O)O)N2CCN(C3CCCC3)CC2)cc1C (stereo not shown)	-21.03%	6.653%	-8.896%	-0.6054%
COc1ccc(C(=O)NCC2CCCN(C3CCOCC3)C2)c(O)c1 (stereo not shown)	-2.629%	4.084%	7.432%	0.6415%
CCOc1cc(C)nc(N2CCN(Cc3nccn3C)CC2)n1	36.58%	10.13%	21%	-0.9479%
CC(C)CNC(=O)Nc1ccc(CN2CCOC2=O)cc1	-14.85%	-8.439%	-25.38%	5.118%
Cc1cc(CN2CCN(C(=O)CCCc3nc(C(C)C)no3)CC2)on1	3.153%	5.357%	23.3%	-6.671%
CC1(C(=O)N2CCOCC2)CN(Cc2c[nH]cn2)CCO1 (stereo not shown)	-3.375%	-1.211%	29.57% and 26.29%	-
CC(C)N(C)CC(=O)N1CCCC(n2ccnc2)C1 (stereo not shown)	-	6.818%	-42.7%	-4.421%
COC(=O)NCC(=O)N1CCCCC1c1nc2cc(F)ccc2[nH]1 (stereo not shown)	-18.74%	13.79%	28.82%	-7.746%
COc1ccc(F)cc1CN1CCN(Cc2nccn2C)C(C)C1 (stereo not shown)	-8.715%	0.9901%	14.14%	-1.591%
COc1ccccc1-n1cc(C(=O)NCCn2nc(C)nc2C)cn1	-9.762%	-0.8505%	-6.029%	4.502%
CN(Cc1cc(F)ccc1C#N)CC(C)(CO)CO	-	11.57%	13.57%	-4.156%
Cc1cnc(CCNC(=O)NCCc2ccc(O)cc2)s1	-1.473%	4.854%	-1.871%	0.1514%
[H][C@]12CN(c3nc(C)cc(C)n3)CC[C@@]1(O)CCN(S(=O)(=O)N(C)C)C2	-	-	0.9668%	-
COCC1(C(=O)N2CCC(c3nccn3CC3CC3)CC2)CCC1	-0.4042%	-0.8444%	9.078%	-3.116%
Cc1nn(CC(=O)Nc2ccon2)c(C)c1Br	-9.11%	3.571%	9.964%	5.729%
COC(=O)N1CCC(CNS(=O)(=O)c2cnn(C)c2)CC1	-10.66%	0.8783%	10.62%	3.076%
Cn1cc(CN2CC[C@H]3CO[C@H](CNc4ncccn4)[C@H]3C2)cn1	-	2.157%	-	8.08%

The first 4 entries again:

Cc1nc(CN2CCCN(C(=O)C3(C#N)CCCCC3)CC2)cs1 read Pks13 thioesterase: -25.9%; CoaBC: -3.599%; Leishmania in macrophages: 18.8%; MtTrpRS: 5.586%.
O=C1[C@H]2CN(Cc3ccco3)C[C@H]2CN1c1ccsc1 read Pks13 thioesterase: -11.79%; CoaBC: 9.533%; MtTrpRS: 3.743%.
CCOC(=O)C1(Cc2cccc(OC)c2)CCN(Cc2ncc[nH]2)CC1 read Pks13 thioesterase: -27.03%; CoaBC: 7.578%; Leishmania in macrophages: 25.08%; MtTrpRS: 1.737%.
N#Cc1ccsc1C(=O)N1CCCN(Cc2cscn2)CC1 read CoaBC: 3.133%; Leishmania in macrophages: 20.59%; MtTrpRS: -2.257%.